In PubChem BioAssay AID212 (DTP/NCI, 2004):
The list does not hold the whole screen: it gathers tests that were run many times, whatever their T/C, doses with no T/C, and many T/C values between a quarter and a half above the control. Further doses and runs are listed elsewhere. T/C is the treated group as % of the vehicle group. Schedules are NCI's codes, taken here to give the interval after Q, in days (D) or hours (H), and the number of doses after X. Some T/C values are followed by the survivors on the day toxicity was checked, most often the fifth; without a count, all were alive then. Some doses were run more than once; the results are listed from low to high. Brackets with × stand for listed records that agree. Some entries give survivors of the animals treated and no T/C: the source holds a T/C of zero for them, seemingly a mark for toxic or unscored doses. Counts of survivors are from the toxicity check (mostly the fifth day) where no day follows; animals may have died later. For survival time, the PubChem record calls one and a half times the control and up active, and a quarter to a half above the control has no call in these data; cut-offs in other NCI protocols can differ.

Test system: BDF1 mice, colon carcinoma 38 sc, T/C %
Assay: NCI In Vivo Anticancer Drug Screen. Data for tumor model Colon Carcinoma 38 (subcutaneous) in B6D2F1 (BDF1) mice
In short: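 T/C readout: treated group (T) measurement over vehicle control group (C) measurement. Endpoint is survival or tumor size in mice bearing a transplanted tumor.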

[1] = T/C endpoint: median tumor weight (est.), dose: 100.0 mg/kg/injection, schedule: Q07DX002 (ip), vehicle: saline, evaluated on day 20, higher T/C = larger tumour
[2] = T/C endpoint: median tumor weight (est.), dose: 25.0 mg/kg/injection, schedule: Q07DX002 (ip), vehicle: saline with Tween-80, evaluated on day 20, higher T/C = larger tumour
[3] = T/C endpoint: median tumor weight (est.), dose: 100.0 mg/kg/injection, schedule: Q07DX002 (ip), vehicle: saline with Tween-80, higher T/C = larger tumour
[4] = T/C endpoint: median tumor weight (est.), dose: 400.0 mg/kg/injection, schedule: Q07DX002 (ip), vehicle: saline with Tween-80, higher T/C = larger tumour
[5] = T/C endpoint: median tumor weight (est.), dose: 200.0 mg/kg/injection, schedule: Q07DX002 (ip), vehicle: saline, higher T/C = larger tumour
[6] = T/C endpoint: median tumor weight (est.), dose: 400.0 mg/kg/injection, schedule: Q07DX002 (ip), vehicle: saline, higher T/C = larger tumour

`O=C1OC(C(O)CO)C(O)=C1O` (stereo unspecified) was tested, and the T/C (T/C endpoint: median tumor weight (est.), dose: 50.0 mg/kg/injection, schedule: Q07DX002 (ip), vehicle: saline, evaluated on day 20, higher T/C = larger tumour) was 146 % of control [8 of 10 alive on day 20], the T/C [1] was 144 % of control [8 of 10 alive on day 20] and the T/C (T/C endpoint: median tumor weight (est.), dose: 800.0 mg/kg/injection, schedule: Q07DX002 (ip), vehicle: saline, evaluated on day 20, higher T/C = larger tumour) was 142 % of control [8 of 10 alive on day 20].
`C[n+]1ccc(Nc2ccc(NC(=O)c3ccc(Nc4cc[n+](C)c5ccc(N)cc45)cc3)cc2)cc1` was tested, and the T/C (T/C endpoint: median tumor weight (est.), dose: 4.0 mg/kg/injection, schedule: Q07DX002 (ip), vehicle: water, evaluated on day 20, higher T/C = larger tumour) was 137 % of control, the T/C (T/C endpoint: median tumor weight (est.), dose: 8.0 mg/kg/injection, schedule: Q07DX002 (ip), vehicle: water, evaluated on day 20, higher T/C = larger tumour) was 143 % of control [9 of 10 alive] and the survivor count (T/C endpoint: median tumor weight (est.), dose: 16.0 mg/kg/injection, schedule: Q07DX002 (ip), vehicle: water, higher T/C = larger tumour) was 2 of 10.
With `CN=C(N)N/N=C(\c1ccccc1)c1ccc(Br)cc1` the T/C [2] was 145 % of control and the survivor count [3] was 0 of 10 on day 20.
In the case of `O=CC(=O)c1ccc(O)cc1`, the T/C (T/C endpoint: median tumor weight (est.), dose: 100.0 mg/kg/injection, schedule: Q07DX002 (ip), vehicle: suspension in saline, evaluated on day 20, higher T/C = larger tumour) is reported as 129 % of control.
In the case of `C[C@@H]1C[C@@H]([C@H](O)CC2CC(=O)NC(=O)C2)C(=O)[C@@H](C)C1`, the T/C [2] is reported as 125 % of control [9 of 10 alive on day 20] and the survivor count [4] is reported as 1 of 10 on day 20.
With `CO[C@H]1C[C@](C)(O)Cc2cc3c(c(O)c21)C(=O)c1c(O)cc2c(c1C3=O)O[C@@H]1O[C@@]2(C)[C@H](O)[C@@H](N(C)C)[C@@H]1O` the survivor count (T/C endpoint: median survival time, dose: 117.0 mg/kg/injection, schedule: Q07DX003 (sc), vehicle: other, higher T/C = longer survival) was 4 of 10 on day 63, the survivor count (T/C endpoint: median survival time, dose: 188.0 mg/kg/injection, schedule: Q07DX003 (sc), vehicle: other, higher T/C = longer survival) was 5 of 10 on day 63 and the survivor count (T/C endpoint: median survival time, dose: 304.0 mg/kg/injection, schedule: Q07DX003 (sc), vehicle: other, higher T/C = longer survival) was 3 of 10 on day 63. The T/C (T/C endpoint: median tumor weight (est.), dose: 3.12 mg/kg/injection, schedule: Q07DX002 (ip), vehicle: other, evaluated on day 20, higher T/C = larger tumour) was 126 and 140 % of control, the T/C (T/C endpoint: median tumor weight (est.), dose: 12.5 mg/kg/injection, schedule: Q07DX002 (ip), vehicle: other, evaluated on day 20, higher T/C = larger tumour) was 125 % of control and the survivor count (T/C endpoint: median tumor weight (est.), dose: 100.0 mg/kg/injection, schedule: Q07DX002 (ip), vehicle: other, higher T/C = larger tumour) was 0 of 8 on day 20.
In the case of `C/C=C/C=C1/OC(C)=C(C(C)=O)C1=O`, the survivor count [4] is reported as 0 of 10 on day 20 and the survivor count (T/C endpoint: median tumor weight (est.), dose: 800.0 mg/kg/injection, schedule: Q07DX002 (ip), vehicle: saline with Tween-80, higher T/C = larger tumour) is reported as 0 of 10 on day 20 and 2 of 9 on day 20.
For `COC(=O)[C@@H]1c2cc3c(c(O)c2[C@@H](OC)C[C@@]1(C)O)C(=O)c1c(O)cc2c(c1C3=O)OC1O[C@@]2(C)[C@H](O)[C@@H](N(C)C)[C@@H]1O`, the T/C (T/C endpoint: median tumor weight (est.), dose: 25.0 mg/kg/injection, schedule: Q07DX002 (ip), vehicle: saline, evaluated on day 20, higher T/C = larger tumour) was 147 % of control, the T/C (T/C endpoint: median tumor weight (est.), dose: 25.0 mg/kg/injection, schedule: Q07DX003 (ip), vehicle: suspension in saline, evaluated on day 20, higher T/C = larger tumour) was 127 % of control and the survivor count [5] was 0 of 10 on day 20. For the same compound, the survivor count [6] was 0 of 10 on day 20.
`CCN(C)N=Nc1ccc(C(N)=O)cc1` was tested, and the survivor count (T/C endpoint: median tumor weight (est.), dose: 400.0 mg/kg/injection, schedule: Q07DX002 (ip), vehicle: Klucel (hydroxypropylcellulose) (HPC), higher T/C = larger tumour) was 0 of 10 on day 20 and 1 of 10 on day 20.
In the case of `O=C(O)C1Cc2nc[nH]c2CN1CO` (stereo unspecified), the T/C [2] is reported as 138 % of control, the T/C (T/C endpoint: median tumor weight (est.), dose: 200.0 mg/kg/injection, schedule: Q07DX002 (ip), vehicle: saline with Tween-80, evaluated on day 20, higher T/C = larger tumour) is reported as 139 % of control and the T/C (T/C endpoint: median tumor weight (est.), dose: 400.0 mg/kg/injection, schedule: Q07DX002 (ip), vehicle: saline with Tween-80, evaluated on day 20, higher T/C = larger tumour) is reported as 138 % of control [9 of 10 alive on day 20]. For the same compound, the T/C (T/C endpoint: median tumor weight (est.), dose: 800.0 mg/kg/injection, schedule: Q07DX002 (ip), vehicle: saline with Tween-80, evaluated on day 20, higher T/C = larger tumour) was 138 % of control [7 of 10 alive on day 20].
`CCN(CC)CCCNc1nccc2c(C)c3[nH]c4ccncc4c3cc12` was tested, and the survivor count (T/C endpoint: median tumor weight (est.), dose: 20.0 mg/kg/injection, schedule: Q07DX002 (ip), vehicle: other, higher T/C = larger tumour) was 1 of 10 on day 20, the survivor count (T/C endpoint: median tumor weight (est.), dose: 24.0 mg/kg/injection, schedule: Q07DX002 (ip), vehicle: acid diluted with saline, higher T/C = larger tumour) was 3 of 10 on day 20 and the survivor count (T/C endpoint: median tumor weight (est.), dose: 40.0 mg/kg/injection, schedule: Q07DX002 (ip), vehicle: other, higher T/C = larger tumour) was 0 of 10 on day 20.
With `COC(=O)C1(F)C(=O)NC(=O)NC1OC` (stereo unspecified) the survivor count (T/C endpoint: median tumor weight (est.), dose: 1600.0 mg/kg/injection, schedule: Q07DX002 (ip), vehicle: Klucel (hydroxypropylcellulose) (HPC), higher T/C = larger tumour) was 5 of 10 on day 20.
For `CN(C)CCCNc1c2ccccc2nc2cccc([N+](=O)[O-])c12`, the T/C (T/C endpoint: median tumor weight (est.), dose: 0.06 mg/kg/injection, schedule: Q07DX002 (ip), vehicle: saline, evaluated on day 20, higher T/C = larger tumour) was 131 % of control, the T/C (T/C endpoint: median tumor weight (est.), dose: 0.12 mg/kg/injection, schedule: Q07DX002 (ip), vehicle: saline, evaluated on day 20, higher T/C = larger tumour) was 92 (2×), 92 [9 of 10 alive on day 20], 97 [7 of 10 alive on day 20], 98, 101, 101 [9 of 10 alive on day 20], 108, 111, 125 % of control (2×) and the survivor count (T/C endpoint: median tumor weight (est.), dose: 0.12 mg/kg/injection, schedule: Q07DX002 (ip), vehicle: saline, higher T/C = larger tumour) was 1 of 10 on day 20. For the same compound, the T/C (T/C endpoint: median tumor weight (est.), dose: 0.25 mg/kg/injection, schedule: Q07DX002 (ip), vehicle: saline, evaluated on day 20, higher T/C = larger tumour) was 68 [7 of 10 alive on day 20], 75, 76 [7 of 10 alive on day 20], 83 [7 of 10 alive on day 20], 89, 107, 110, 118 [7 of 10 alive on day 20], 156 % of control [9 of 10 alive on day 20], the survivor count (T/C endpoint: median tumor weight (est.), dose: 0.25 mg/kg/injection, schedule: Q07DX002 (ip), vehicle: saline, higher T/C = larger tumour) was 0 of 10 on day 20, 4 of 10 on day 20, 6 of 10 on day 20 and the T/C (T/C endpoint: median tumor weight (est.), dose: 0.5 mg/kg/injection, schedule: Q07DX002 (ip), vehicle: saline, evaluated on day 20, higher T/C = larger tumour) was 72, 86, 95 % of control [8 of 10 alive on day 20]. For the same compound, the survivor count (T/C endpoint: median tumor weight (est.), dose: 0.5 mg/kg/injection, schedule: Q07DX002 (ip), vehicle: saline, higher T/C = larger tumour) was 0 of 10 on day 20, 1 of 10 on day 20, 2 of 10 on day 20, 4 of 10 on day 20, 6 of 10 on day 20, the T/C (T/C endpoint: median tumor weight (est.), dose: 1.0 mg/kg/injection, schedule: Q07DX002 (ip), vehicle: saline, evaluated on day 20, higher T/C = larger tumour) was 69 % of control and the survivor count (T/C endpoint: median tumor weight (est.), dose: 1.0 mg/kg/injection, schedule: Q07DX002 (ip), vehicle: saline, higher T/C = larger tumour) was 0 of 10 on day 20 and 1 of 10 on day 20.
With `O=c1nc(Oc2ccccc2)nc2ncccn12` the T/C (T/C endpoint: median tumor weight (est.), dose: 12.5 mg/kg/injection, schedule: Q07DX002 (ip), vehicle: saline with Tween-80, evaluated on day 20, higher T/C = larger tumour) was 133 % of control [8 of 10 alive on day 20], the T/C [2] was 133 % of control [7 of 10 alive on day 20] and the survivor count [3] was 6 of 10 on day 20. The survivor count (T/C endpoint: median tumor weight (est.), dose: 200.0 mg/kg/injection, schedule: Q07DX002 (ip), vehicle: saline with Tween-80, higher T/C = larger tumour) was 0 of 10 on day 20.
In the case of `CC(=O)N(C)c1ccc(Nc2cc(C)[nH]c3ccc4ncnc4c23)cc1`, the survivor count [5] is reported as 0 of 10 on day 20 and the survivor count [6] is reported as 0 of 10 on day 20.
In the case of `COc1c(CNC(=O)CCl)cc2[nH]c(C)cc2c1CNC(=O)CCl`, the T/C (T/C endpoint: median tumor weight (est.), dose: 25.0 mg/kg/injection, schedule: Q07DX002 (ip), vehicle: Klucel (hydroxypropylcellulose) (HPC), evaluated on day 20, higher T/C = larger tumour) is reported as 135 % of control.
`CC(=O)NCCCCCCNC(C)=O` was tested, and the T/C [1] was 136 % of control and the T/C (T/C endpoint: median tumor weight (est.), dose: 400.0 mg/kg/injection, schedule: Q07DX002 (ip), vehicle: saline, evaluated on day 20, higher T/C = larger tumour) was 128 % of control [9 of 10 alive on day 20].
For `CCCCNC(C)[C@]1(O)Cc2c(O)c3c(c(O)c2[C@@H](OC2CC(N)C(O)C(C)O2)C1)C(=O)c1c(OC)cccc1C3=O` (stereo partly specified), the T/C (T/C endpoint: median survival time, dose: 42.0 mg/kg/injection, schedule: Q07DX002 (sc), vehicle: saline, higher T/C = longer survival) was 147 % of control [9 of 10 alive on day 44], the T/C (T/C endpoint: median survival time, dose: 68.0 mg/kg/injection, schedule: Q07DX002 (sc), vehicle: saline, higher T/C = longer survival) was 130 % of control [8 of 10 alive on day 44] and the survivor count (T/C endpoint: median survival time, dose: 110.0 mg/kg/injection, schedule: Q07DX002 (sc), vehicle: saline, higher T/C = longer survival) was 5 of 10 on day 44. For the same compound, the T/C (T/C endpoint: median tumor weight (est.), dose: 1.69 mg/kg/injection, schedule: Q07DX002 (ip), vehicle: saline, evaluated on day 20, higher T/C = larger tumour) was 132 % of control, the survivor count (T/C endpoint: median tumor weight (est.), dose: 27.0 mg/kg/injection, schedule: Q07DX002 (ip), vehicle: saline, higher T/C = larger tumour) was 1 of 10 on day 20 and the survivor count (T/C endpoint: median tumor weight (est.), dose: 54.0 mg/kg/injection, schedule: Q07DX002 (ip), vehicle: saline, higher T/C = larger tumour) was 1 of 10 on day 20.
